Some entries share one result that the patent states for a list of compounds.
Biological target: human GLP-1R (Homo sapiens, UniProt P43220)
Assay: Human GLP-1 Receptor HEK293 cell cAMP assay, 581 fmol/mg GLP-1R expression density
Type: cell-based
Design: expressed in transfected cells; host or cells: HEK293 clonal cell line
Conditions: HEK293 cells expressing 581 and 104 fmol/mg GLP-1R
Procedure: Human GLP-1 Receptor HEK293 Cell cAMP Assay
GLP-1 Receptor functional activity is determined using cAMP formation in an HEK293 clonal cell line expressing human GLP-1R (NCBI accession number NP_002053) at an expression density of 581±94 (n=6) and 104±12 (n=5) fmol/mg protein (determined using [^125I]GLP-1(7-36)NH2 homologous competition binding analysis). The hGLP-1R receptor expressing cells are treated with compound (20 point concentration-response curve in DMSO, 2.75-fold Labcyte Echo direct dilution, 384 well plate Corning Cat #3570) in DMEM (Gibco Cat #31053) supplemented with 1× GlutaMAX™ (Gibco Cat #35050), 0.1% bovine casein (Sigma C4765-10ML), 250 μM IBMX (3-Isobutyl-1-methylxanthine, Acros Cat #228420010) and 20 mM HEPES (Gibco Cat #15630) in a 20 μL assay volume (final DMSO concentration is 0.5%). After a 30 min incubation at 37° C., the resulting increase in intracellular cAMP is quantitatively determined using the CisBio cAMP Dynamic 2 HTRF Assay Kit (62AM4PEJ). Briefly, cAMP levels within the cell are detected by adding the cAMP-d2 conjugate in cell lysis buffer (10 μL) followed by the antibody anti-cAMP-Eu^3+-Cryptate, also in cell lysis buffer (10 μL). The resulting competitive assay is incubated for at least 60 min at RT, then detected using a PerkinElmer Envision® instrument with excitation at 320 nm and emission at 665 nm and 620 nm. […]

Amino acid sequences for entries named in this document (tags omitted). Residues count along the entry.
UniProt P43220, 24-463: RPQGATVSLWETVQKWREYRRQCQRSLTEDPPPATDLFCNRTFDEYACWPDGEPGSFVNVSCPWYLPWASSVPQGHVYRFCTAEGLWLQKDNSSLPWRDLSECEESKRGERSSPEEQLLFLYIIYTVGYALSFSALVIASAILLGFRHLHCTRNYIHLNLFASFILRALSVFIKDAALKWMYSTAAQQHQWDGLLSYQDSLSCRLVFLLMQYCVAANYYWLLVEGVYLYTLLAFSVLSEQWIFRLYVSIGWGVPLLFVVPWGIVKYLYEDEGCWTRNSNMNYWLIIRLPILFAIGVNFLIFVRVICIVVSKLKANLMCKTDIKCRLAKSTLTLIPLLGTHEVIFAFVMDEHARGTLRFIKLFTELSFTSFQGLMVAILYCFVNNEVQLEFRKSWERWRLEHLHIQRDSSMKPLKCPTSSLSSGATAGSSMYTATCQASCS

Substance: (S)-2-((5^4-Cyano-1^6,2^3-difluoro-3,8-dioxa-2(2,6)-pyridina-1(1,3),5(1,2)-dibenzenacyclononaphane-1^4-yl)methyl)-4-(2-methoxyethoxy)-1-(oxetan-2-ylmethyl)-1H-benzo[d]imidazole-6-carboxylic acid [Example 60]
- agonism of the human GLP-1 receptor: agonists of the human GLP-1 receptor
